Test [1] addresses T1, Ubiquitin-specific protease 53 (USP53) (mouse (endogenous in mouse brain)) (UniProt P15975).
T1 sequence: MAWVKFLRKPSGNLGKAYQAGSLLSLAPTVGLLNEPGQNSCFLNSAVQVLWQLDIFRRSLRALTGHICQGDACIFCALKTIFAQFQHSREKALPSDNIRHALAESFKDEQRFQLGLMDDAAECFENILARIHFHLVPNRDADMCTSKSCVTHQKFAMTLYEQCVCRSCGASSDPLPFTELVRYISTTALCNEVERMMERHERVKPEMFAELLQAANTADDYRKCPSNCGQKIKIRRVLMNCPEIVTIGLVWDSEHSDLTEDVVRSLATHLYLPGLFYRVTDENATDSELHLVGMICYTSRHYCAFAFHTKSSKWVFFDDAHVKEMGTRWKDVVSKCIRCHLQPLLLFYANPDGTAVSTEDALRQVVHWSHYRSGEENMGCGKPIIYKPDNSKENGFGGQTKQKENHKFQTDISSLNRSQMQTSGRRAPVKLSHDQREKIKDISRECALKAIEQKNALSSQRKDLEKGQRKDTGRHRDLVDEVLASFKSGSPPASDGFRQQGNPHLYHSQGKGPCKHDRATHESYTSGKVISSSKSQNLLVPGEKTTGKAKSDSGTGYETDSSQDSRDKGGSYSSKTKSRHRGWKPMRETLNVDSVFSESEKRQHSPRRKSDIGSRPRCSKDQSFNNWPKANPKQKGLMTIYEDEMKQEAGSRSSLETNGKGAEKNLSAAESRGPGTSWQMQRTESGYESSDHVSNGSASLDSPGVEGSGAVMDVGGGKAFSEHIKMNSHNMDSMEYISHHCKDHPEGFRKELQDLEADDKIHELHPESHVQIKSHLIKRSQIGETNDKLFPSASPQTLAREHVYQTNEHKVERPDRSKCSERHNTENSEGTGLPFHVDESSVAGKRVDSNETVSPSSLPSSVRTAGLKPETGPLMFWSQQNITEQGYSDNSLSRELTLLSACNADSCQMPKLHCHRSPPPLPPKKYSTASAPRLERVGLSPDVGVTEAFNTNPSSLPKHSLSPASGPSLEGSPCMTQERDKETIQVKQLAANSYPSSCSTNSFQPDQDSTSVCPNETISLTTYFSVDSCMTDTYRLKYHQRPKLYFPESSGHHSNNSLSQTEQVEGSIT
Nature of the test: co-IP; synaptosomes (P2) from whole mouse brain in Syn-PER reagent and co-IP buffer (150 mM NaCl, 10 mM Tris-HCl pH 7.4, 1 mM EDTA, 1 mM EGTA, Triton X-100 1%, NP-40 0.5%), on ice and at 4 °C; 2.88 µg primary antibody, Protein A magnetic beads; Western blot.

The target in test [2] is Glutamate receptor interacting protein 2 (GRIP2) (mouse (endogenous in mouse brain)). The description is as above.

These are yes or no findings as the source states them, for the method shown. Binding seen in cells or lysates may run through a third protein. A result given as binding can be weak or reduced; the word gives no strength.

Regarding “Glutamate receptor interacting protein 2 (GRIP2) (mouse (endogenous in mouse brain))”, the binding entry in test [1] is reported as “binds”.

B1: Ubiquitin-specific protease 53 (USP53) (protein, UniProt P15975 1-1069)
chain: MAWVKFLRKPSGNLGKAYQAGSLLSLAPTVGLLNEPGQNSCFLNSAVQVLWQLDIFRRSLRALTGHICQGDACIFCALKTIFAQFQHSREKALPSDNIRHALAESFKDEQRFQLGLMDDAAECFENILARIHFHLVPNRDADMCTSKSCVTHQKFAMTLYEQCVCRSCGASSDPLPFTELVRYISTTALCNEVERMMERHERVKPEMFAELLQAANTADDYRKCPSNCGQKIKIRRVLMNCPEIVTIGLVWDSEHSDLTEDVVRSLATHLYLPGLFYRVTDENATDSELHLVGMICYTSRHYCAFAFHTKSSKWVFFDDAHVKEMGTRWKDVVSKCIRCHLQPLLLFYANPDGTAVSTEDALRQVVHWSHYRSGEENMGCGKPIIYKPDNSKENGFGGQTKQKENHKFQTDISSLNRSQMQTSGRRAPVKLSHDQREKIKDISRECALKAIEQKNALSSQRKDLEKGQRKDTGRHRDLVDEVLASFKSGSPPASDGFRQQGNPHLYHSQGKGPCKHDRATHESYTSGKVISSSKSQNLLVPGEKTTGKAKSDSGTGYETDSSQDSRDKGGSYSSKTKSRHRGWKPMRETLNVDSVFSESEKRQHSPRRKSDIGSRPRCSKDQSFNNWPKANPKQKGLMTIYEDEMKQEAGSRSSLETNGKGAEKNLSAAESRGPGTSWQMQRTESGYESSDHVSNGSASLDSPGVEGSGAVMDVGGGKAFSEHIKMNSHNMDSMEYISHHCKDHPEGFRKELQDLEADDKIHELHPESHVQIKSHLIKRSQIGETNDKLFPSASPQTLAREHVYQTNEHKVERPDRSKCSERHNTENSEGTGLPFHVDESSVAGKRVDSNETVSPSSLPSSVRTAGLKPETGPLMFWSQQNITEQGYSDNSLSRELTLLSACNADSCQMPKLHCHRSPPPLPPKKYSTASAPRLERVGLSPDVGVTEAFNTNPSSLPKHSLSPASGPSLEGSPCMTQERDKETIQVKQLAANSYPSSCSTNSFQPDQDSTSVCPNETISLTTYFSVDSCMTDTYRLKYHQRPKLYFPESSGHHSNNSLSQTEQVEGSIT
For the molecule B1, the binding entry in test [2] is “binds”.
